Experimental data from PubChem BioAssay AID1487 (National Center for Advancing Translational Sciences (NCATS), 2009).
About 25 (0.01%) of roughly 200,000 compounds were called active. The shares of active, inactive and inconclusive entries below differ from those in the screen. Calls come from the whole dose curve; as a rule, active = well fitted inhibition curve with a large enough effect in the signal ratio, with a control signal flat (not every such curve was filed as active); inconclusive = small, poorly fitted or top-dose-only effect, or effect the other way, or a change in a side signal; inactive = flat fitted curve, though single readings scatter; the % refers to the signal ratio. Potencies of inconclusive entries are doubtful fits and often do not repeat.

assay: qHTS Assay for Modulators of Lamin A Splicing; details: HeLa LMNA splicing GFP/RFP minigene ratio, 48 h; ratio change, negative = inhibition: at 46.1 µM (top of the series) unless noted
Outline: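 S3 HeLa stable clones carrying a lamin A-EGFP splicing minigene plus DsRed2 were seeded at 600 cells/well in Opti-MEM with 2% FBS, pin-dosed and incubated 48 h at 37°C. Acumen cytometry (488 nm) gave the GFP/RFP total-intensity ratio.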
% is set by controls: 0 for no effect and ±100 for the full control effect; potency is the fitted concentration of half-maximal effect.

Row | Structure (SMILES) | ratio change, negative = inhibition | Potency
1 | O=C(Nc1cccc(O)c1)C(Cc1ccccc1)N1C(=O)c2cccc3cccc(c23)C1=O (configuration not stated) | inactive | 
2 | C=CCn1c(CSCc2ccccc2)nnc1SCC(=O)N1CCN(c2ccccc2)CC1 | inactive | 
3 | O=C(Nc1ccc(CN2CCOCC2)cc1)c1ccc(-c2ccc(Cl)cc2Cl)o1 | inconclusive: 28.4% [at 46 µM] | 
4 | CC(=O)c1ccc(NC(=S)NCCCN2CCOCC2)cc1 |  | inconclusive: 6.31 µM [activator, partial curve, poor fit]
5 | CC(C)c1ccc2nc3sc(C(=O)N4CCc5ccccc5C4)c(N)c3cc2c1 | inactive | 
6 | C[C@@]12CC(=O)NC1N(C(=O)c1cccc(C(F)(F)F)c1)C(c1ccccc1OC(=O)c1cccc(C(F)(F)F)c1)C2 (some centres not stated) | inconclusive: -3.29% | 
7 | CCN(CC)c1ccc(C(=O)OCC(=O)Nc2cccc(S(=O)(=O)NC3=NCCCCC3)c2)cc1 | inactive | 
8 | COc1ccc([N+](=O)[O-])cc1N(CC(=O)NC(C(C)C)C(C)C)S(C)(=O)=O | inconclusive: -4.35% [at 46 µM] | 
9 | O=C(Nc1ccccc1Br)C1CC(=O)N(c2ccc3c4c(cccc24)CC3)C1 (configuration not stated) | inconclusive: -34.4% | 
10 | Cn1c(CN2CCCCC2)nc2cc(NC(=O)c3ccc(F)cc3)ccc21 | inconclusive: -28.3% | 
11 | O=C1COc2ccc(C(=O)COC(=O)CNC(=O)c3ccco3)cc2N1 | inconclusive: 6.01% [at 46 µM] | 
12 | CCNC(=S)Nc1cc(Cl)ccc1Oc1ccccc1 |  | inconclusive: 35.5 µM [fluorescent, single point]
13 | CC(=O)N1CCN(c2ccc(NCc3ccccc3)cc2)CC1 | inconclusive: 3.46% | 
14 | O=c1c2[nH]c3ccccc3c2nc(SCc2cccc(F)c2)n1-c1ccccc1 |  | inconclusive: 35.5 µM [rising, single point]
15 | O=C(O)c1ccc(NS(=O)(=O)c2ccc3nnn(O)c3c2)cc1 | inactive | 
16 | COc1ccc(C2CC23N=C(c2ccccc2)OC3=O)cc1 (configuration not stated) | inactive | 
17 | O=C(c1ccc(Cl)c(Cl)c1)c1cnc(Nc2ccccc2)s1 | inactive | 
18 | Cc1ccc(-c2nn(-c3ccccc3)c3[nH]c(=O)c(CNCc4ccccc4)cc23)cc1 |  | inconclusive: 22.4 µM [inhibitor, single point]
19 | O=c1ccn([C@@H]2O[C@H](CO)[C@@H](O)[C@H]2O)c(=O)[nH]1 | inconclusive: -0.207% | 
20 | N#CC1=C(N)N(c2ccc(F)cc2)C2=C(C1c1ccc(O)cc1)S(=O)(=O)CC2 (configuration not stated) |  | inconclusive: 35.5 µM [inhibitor, single point]
21 | CN(C)c1ncc(S(=O)(=O)c2ccc(Cl)cc2)c(-c2ccccc2)n1 | inconclusive: 40.2% | 

Row | Structure (SMILES) | ratio change, negative = inhibition | Potency
22 | COc1ccc(CNC(=O)c2cc(-c3ccco3)on2)cc1 | inactive | 
23 | Cc1n[nH]c(C)c1Sc1ccccc1[N+](=O)[O-] | inconclusive: 3.41% [at 46 µM] | 
24 | Cc1cc(C)cc(-n2ccnc2SCC(=O)Nc2nccs2)c1 | inconclusive: -15.9% | 
25 | CCN1CCN(C(=O)c2ccc3c(c2)N(Cc2cccc(F)c2)C(=O)c2ccccc2S3)CC1 | inactive | 
26 | N#Cc1cn(-c2ccccc2)nc1-c1ccc2c(c1)OCCO2 | inactive | 
27 | O=C(c1ccc(N2CCCC2=O)cc1)N1CCN(c2ccccc2)CC1 | inactive | 
28 | COc1ccc(N2CCN(C(=O)c3ccc4ccccc4n3)CC2)cc1 | inconclusive: 33.2% [at 46 µM] | 
29 | CCOc1ccc(C(=O)N2CCN(Cc3cc(=O)n4nc(-c5ccccc5Cl)sc4n3)CC2)cc1 | inconclusive: -11.2% [at 46 µM] | 
30 | COc1ccccc1NC(=O)C1=C(C)Nc2nc(SCc3cc(C)ccc3C)nn2C1c1ccccc1 (configuration not stated) | inconclusive: 61.1% [at 46 µM] | 
31 | C=CCn1c(N)c(C(=O)NCC2CCCO2)sc1=S (configuration not stated) | inactive | 
32 | C[N+]12CCCCC1C(COC(=O)c1ccc3c(c1)OCO3)CCC2 (configuration not stated) |  | inconclusive: 20 µM [activator, single point]
33 | CCN1CCC(N(Cc2ccc3c(c2)OCO3)C(=O)Nc2ccc(Br)c(C)c2)CC1 | inconclusive: -30.7% [at 46 µM] | 
34 | Cc1cc(C=C2C(=O)CCCC2=O)c(C)n1-c1ccccc1 | inactive | 
35 | COc1ccccc1N1CCN(C/C=C/c2ccc(N(C)C)cc2)CC1 | inconclusive: 8.36% | 
36 | COc1ccc(CCNC(=O)C23CCC(C)(C(=O)O2)C3(C)C)cc1OC (configuration not stated) | inconclusive: 15.7% [at 46 µM] | 
37 | O=C(NCCCN1CCOCC1)c1ccc(N2CCCC2)c([N+](=O)[O-])c1 | inconclusive: 13.8% [at 46 µM] | 
38 | COc1ccc(C)cc1-n1nnnc1SCc1csc(C)n1 | inconclusive: 4.41% | 
39 | COc1ccc(Cl)cc1NC(=S)Nc1cccc(C)c1 | inactive | 
40 | NNC(=O)CN(CCc1ccccc1)S(=O)(=O)c1ccc(Cl)cc1 | inconclusive: 98.6% [at 46 µM] | 
41 | Cc1ccc(Cl)cc1NC(=O)C(=O)NCCc1sc(-c2ccc(F)cc2)nc1C | inconclusive: 33.6% [at 46 µM] | 
42 | CCc1ccc(-c2nn(CC(=O)NC3CCCCC3)c3c2cnc2ccc(OC)cc23)cc1 | inconclusive: -15.6% [at 46 µM] | 

An excerpt from above in order of molar mass, descending:
Row | Structure (SMILES) | ratio change, negative = inhibition | Potency
29 | CCOc1ccc(C(=O)N2CCN(Cc3cc(=O)n4nc(-c5ccccc5Cl)sc4n3)CC2)cc1 | inconclusive: -11.2% [at 46 µM] | 
33 | CCN1CCC(N(Cc2ccc3c(c2)OCO3)C(=O)Nc2ccc(Br)c(C)c2)CC1 | inconclusive: -30.7% [at 46 µM] | 
26 | N#Cc1cn(-c2ccccc2)nc1-c1ccc2c(c1)OCCO2 | inactive | 
31 | C=CCn1c(N)c(C(=O)NCC2CCCO2)sc1=S (configuration not stated) | inactive | 

The list continues:

Row | Structure (SMILES) | ratio change, negative = inhibition | Potency
43 | COc1c2c(nc3occc13)C(CC=C(C)C)(OC)C(O)CC2 (configuration not stated) | inconclusive: -6.92% | 
44 | C=CCc1ccccc1OCC(O)CN1CCN(CCN2C(=O)c3cccc4cccc(c34)C2=O)CC1 (configuration not stated) | inconclusive: 7.74% | 
45 | Cc1ccccc1N=C1SC(CC(=O)Nc2ccc3ccccc3c2)C(=O)N1Cc1ccccn1 (configuration not stated) | inconclusive: -13.2% | 
46 | Oc1c(C(c2ccccc2)N2CCN(c3ccccc3)CC2)sc2nc(-c3ccco3)nn12 (configuration not stated) | inconclusive: 8.37% [at 46 µM] | 
47 | CCN1C(=O)C2C(c3cccc(F)c3)NC(C)(C(=O)OC)C2C1=O (configuration not stated) | inconclusive: -0.465% | 
48 | CCOC(=O)c1cc(C#N)c(SCc2ccc(C#N)cc2)nc1C | inconclusive: 20.2% | 
49 | O=C1CC(c2ccccc2)N1c1ccccc1 (configuration not stated) | inactive | 
50 | O=C(CSc1nnc(Nc2ccccc2F)s1)Nc1cccc(S(=O)(=O)N2CCCCC2)c1 |  | inconclusive: 35.5 µM [falling, single point]
51 | CCSC(=Nc1ccccc1)Nc1ccccc1 | inconclusive: -12.2% [at 46 µM] | 
52 | O=C(NNc1c(Cl)cc(Cl)cc1Cl)C1CCC1 | inconclusive: 14.9% | 
53 | Cc1cc(NC(=O)c2sc(Nc3cccc(C(F)(F)F)c3)nc2N)no1 | inactive | 
54 | C=CCNC(=S)NNC(=O)c1cc(C)nc2ccccc12 | inconclusive: -0.971% | 
55 | O=C(O)C1C2CCC(O2)C1C(=O)Nc1ccc(O)cc1 (configuration not stated) | inconclusive: -4.91% | 
56 | COc1cccc(CN(C)CC(=O)Nc2sc3c(c2C#N)CCC3)c1OC | inconclusive: -36.7% [at 46 µM] | 
57 | Nc1ccccc1SC1CC(=O)N(c2ccccc2Cl)C1=O (configuration not stated) | inconclusive: 10.7% [at 46 µM] | 
58 | O=C(NCCc1ccccc1)c1cc(Sc2ccc(F)cc2F)nc2ccccc12 | inconclusive: -2.51% [at 46 µM] | 
59 | CC(C)Oc1ccc(C(=O)Nc2ccc(Cl)c(S(=O)(=O)Nc3ccc(Cl)cc3)c2)cc1 | inconclusive: -40% | 
60 | COC(=O)c1cn(NC(=O)c2ccccc2[N+](=O)[O-])c(=O)c2ccccc12 | inconclusive: 5.51% [at 46 µM] | 
61 | O=C(Nc1nc2c(s1)CCCC2)c1ccc(Br)s1 |  | inconclusive: 25.1 µM [falling, single point]
62 | COc1cc(OC)cc(-c2nnc(Sc3ccc(C=O)cc3[N+](=O)[O-])o2)c1 |  | inconclusive: 11.2 µM [inhibitor, single point]
63 | COc1ccc(O)c(-c2[nH]ncc2C(=O)c2ccccc2C)c1 | inconclusive: 23.3% | 

Row | Structure (SMILES) | ratio change, negative = inhibition | Potency
64 | CCCCn1c(CN(C)Cc2ccccc2)nc2c1c(=O)n(C)c(=O)n2C |  | inconclusive: 11.2 µM [falling, partial curve]
65 | Cc1c(CCOC(=O)C23CC4CC(CC(C)(C4)C2)C3)sc[n+]1Cc1ccccc1 | inconclusive: -39.3% | 
66 | CN(C)/C=C/c1onc(-c2ccccc2Cl)c1C#N | inconclusive: -21.4% [at 46 µM] | 
67 | COc1cc(NC(=O)CSc2ccc3c(c2)OCCO3)cc(OC)c1OC | inconclusive: -36.9% | 
68 | C/C=C(\C)CN1CCN(c2cc(C)ccc2C)CC1 | inactive | 
69 | CC(C)OC(=O)/C(=C/c1cccnc1)NC(=O)c1ccccc1 | inactive | 
70 | COCCOC(=O)/C(C#N)=C/c1cn(Cc2ccccc2)nc1-c1cccnc1 | inconclusive: -13.5% [at 46 µM] | 
71 | CCN(CC)CCOC(=O)c1ccc(N)cc1 | inconclusive: -8.52% | 
72 | Cc1ccc(S(=O)(=O)Oc2ccc(C(c3c(C)[nH][nH]c3=O)c3c(C)[nH][nH]c3=O)cc2)cc1 | inactive | 
73 | CCOC(=O)C1CC(c2ccccc2)=NNC1=O (configuration not stated) | inconclusive: -25% [at 46 µM] | 
74 | CCn1c(=O)cc(OCC(=O)Nc2ccc3c(c2)OCCO3)c2ccccc21 | inconclusive: -34% | 
75 | Cc1cnc(CNc2ncnc3ccc(-c4ccccc4C)cc23)cn1 | inconclusive: -0.487% | 
76 | CCC(C)c1ccc(NC(=O)CSc2nncn2N)cc1 (configuration not stated) | inactive | 
77 | CCOc1cc(/C=N/O)ccc1OCc1ccc(F)cc1 | inconclusive: 8.74% | 
78 | CC(C)CCNC(=O)CN(C(=O)Cn1nnc(-c2ccc(F)cc2)n1)C1CCCC1 | inconclusive: 25.8% | 
79 | C/C(=C\C(=O)c1ccc(F)cc1)NCc1ccc2c(c1)OCO2 | inconclusive: 46.9% | 
80 | CCOC(=O)CSc1nc2cc3c(cc2c(=O)n1CCCCCC(=O)NCc1ccc2c(c1)OCO2)OCO3 | inactive | 
81 | CC1(C)CC2(CC(C)(C)N1)OC(=O)N1CCc3ccccc3C12C (configuration not stated) | inactive | 
82 | Cc1cc(C(=O)COC(=O)CNC(=O)c2ccccc2)c(C)n1CC1CCCO1 (configuration not stated) | inconclusive: -22.6% [at 46 µM] | 
